Assay results published in PubChem BioAssay AID2685 (National Center for Advancing Translational Sciences (NCATS), 2010).
Hit rate of the full screen: of about 320,000 compounds, about 2,100 (0.66%) were called active. Inconclusive means that the source gave no clear call. Such entries were picked first, then a sample of the others. The call rests on the fitted dose curve; in most records, active means well fitted inhibition curve with a large enough effect in the signal ratio, with a control signal flat (not every such curve was filed as active); inconclusive means small, poorly fitted or top-dose-only effect, or effect the other way, or a change in a side signal; inactive means flat fitted curve, though single readings scatter; the % refers to the signal ratio. Potencies of inconclusive entries are doubtful fits and often do not repeat.
On the % scale 0 is the no-effect control and ±100 the full control effect; potency means the concentration at half of the fitted maximal effect.

Test: qHTS Assay for Lipid Storage Modulators in Drosophila S3 Cells
Settings: BODIPY lipid droplet fluorescence, 18-24 h, cells fed with added oleic acid; lipid storage change, negative = inhibition: at 46.1 µM (top of the series) unless noted
Outline: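 Laser-scanning cytometry quantifies lipid droplet accumulation (500–530 nm total intensity; droplet/cell object ratio) in oleic acid-fed (400 uM added) Drosophila S3 cells treated with a concentration series. 20 uM Triacsin C defined 100% inhibition.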
With COC(=O)c1cc(NC(=O)Cc2coc3cc(OC)ccc23)cc(C(=O)OC)c1 the lipid storage change, negative = inhibition was inconclusive: -8.94%. For O=C(Nc1ccc(C(F)(F)F)cc1)c1cccc(-n2cnnn2)c1, the “lipid storage change, negative = inhibition” value was inactive: 19%. With Cc1noc(C)c1COC(=O)CNC(=O)c1ccc(Cl)cc1 the lipid storage change, negative = inhibition was inconclusive: 14.9%. With Cc1cc(NC(=O)CSCc2nc(-c3cccc(Cl)c3)oc2C)no1 the lipid storage change, negative = inhibition was inconclusive: 0.273%. For Cc1ccc(C(=O)Nc2ncccc2O)cc1S(=O)(=O)N1CCCCC1, the Potency was inconclusive: 29.1 µM [rising, single point]. With CS(=O)(=O)N(CC(=O)NCc1ccco1)c1cccc([N+](=O)[O-])c1 the Potency was inconclusive: 4.61 µM [falling, partial curve]. For CCC(=O)Nc1cccc(NC(=S)NC(=O)c2ccc(Cl)cc2Cl)c1, the Potency was inconclusive: 29.1 µM [falling, single point]. For Brc1cccc(CNCC2CCCO2)c1 (centres undefined), the lipid storage change, negative = inhibition was inconclusive: 44.2%. With Cc1cc(S(=O)(=O)NCc2ccccc2)ccc1OCC(=O)N1CCOCC1 the lipid storage change, negative = inhibition was inconclusive: 114%. In the case of O=c1oc2ccccc2c2c1SC(C(F)(F)F)C2 (centres undefined), the Potency is reported as inconclusive: 0.82 µM [activator, full curve, poor fit]. With COc1ccc(/C=N/NC(=O)c2csc(-n3nc(C)cc3C(F)(F)F)n2)cc1 the Potency was inconclusive: 1.64 µM [rising, partial curve]. For Cn1ncc(Br)c1NC(=O)CSc1ccc(Cl)cc1, the lipid storage change, negative = inhibition was inconclusive: -17%. With Cc1ccc(C(=O)Nc2ccccn2)cc1S(=O)(=O)N1CCOCC1 the lipid storage change, negative = inhibition was inconclusive: -39.1%. With Cc1cc(C)c(S(=O)(=O)N2CCOC2CNC(=O)C(=O)NCCCN2CCCC2=O)c(C)c1 (centres undefined) the Potency was inconclusive: 0.82 µM [falling, single point]. In the case of O=C(C1CCN(S(=O)(=O)c2ccccc2)CC1)N1CCc2ccccc21, the lipid storage change, negative = inhibition is reported as inconclusive: 65.7%. For Nc1c(C(=O)Nc2cccc(F)c2)nnn1-c1ccc2c(c1)OCCO2, the lipid storage change, negative = inhibition was inconclusive: 48.1%. For Nc1cccn2c(-c3ccc(Cl)c(Cl)c3)cnc12, the lipid storage change, negative = inhibition was inconclusive: 25.1%. In the case of COCc1ccc(C(=O)NC2CC(C)(C)Cc3c2cnn3-c2ccc(C)cc2)o1 (centres undefined), the Potency is reported as inconclusive: 6.51 µM [falling, single point]. With CCCCOC(=O)CCc1n[nH]c(=O)[nH]c1=O the lipid storage change, negative = inhibition was inconclusive: -0.126%. For COc1cccc(-c2nc(CS(=O)(=O)CC(=O)Nc3cccc(C(C)=O)c3)c(C)o2)c1, the lipid storage change, negative = inhibition was inconclusive: -32.6%. For COc1ccc(O)c(C(=O)c2cnc3nc4ccccc4n3c2)c1, the lipid storage change, negative = inhibition was inconclusive: -16.8%. In the case of CC1CCN(S(=O)(=O)c2cn(C)c(=O)n(C)c2=O)CC1, the lipid storage change, negative = inhibition is reported as inconclusive: -16.1%. In the case of COc1ccccc1-c1cn[nH]c1-c1ccc(OCc2ccccc2F)cc1O, the Potency is reported as inconclusive: 20.6 µM [cytotoxic, single point]. With O=C(Nc1ccccc1Cc1ccccc1)c1ccncc1 the lipid storage change, negative = inhibition was inconclusive: -12%. For CCOc1ccc(OCc2ccc(C(=O)N(CC)CC)cc2)cc1, the lipid storage change, negative = inhibition was inconclusive: 25.5%. In the case of O=C(NCc1cccnc1)Nc1cccc(F)c1, the lipid storage change, negative = inhibition is reported as inconclusive: 28.4% [at 9.22 µM]. With Cc1csc(NC(=O)CSc2nnc(C)c(=O)n2N)n1 the lipid storage change, negative = inhibition was inconclusive: -58.2%. With COc1ccc(C)cc1NC(=O)C1CCN(C(=O)c2ccco2)CC1 the lipid storage change, negative = inhibition was inconclusive: 43.5%. With NCCCCCc1cn(CC(=O)NCCCCCCCCCCC(=O)N2CCNCC2)nn1 the lipid storage change, negative = inhibition was inconclusive: 2.19%. For CN1CCN(C(=O)CC2(CC(=O)O)CCCC2)CC1, the lipid storage change, negative = inhibition was inconclusive: -19.3%. In the case of Cc1nc(Cl)c2c(n1)NC(=O)CO2, the lipid storage change, negative = inhibition is reported as inconclusive: 17.9%. In the case of COc1ccc(NC(C)=O)cc1NC(C)C(=O)Nc1cc(C(F)(F)F)ccc1N1CCOCC1 (centres undefined), the Potency is reported as inconclusive: 1.64 µM [activator, full curve, poor fit]. In the case of NCCCn1c(C(=O)c2cc(Cl)c(N)c(Cl)c2)c2ccccc2[n+]1[O-], the Potency is reported as inconclusive: 29.1 µM [falling, single point]. For Cc1nc(NC(=O)c2ccc(-c3cc4ccccc4oc3=O)cc2)ccc1Br, the Potency was inconclusive: 0.164 µM [rising, full curve, poor fit]. For O=C(COC(=O)CNC(=O)c1ccc(Cl)cc1Cl)NC1CCCCC1, the Potency was inconclusive: 16.4 µM [activator, partial curve]. In the case of CC(=O)c1cccc(NC(=O)[C@@H](NC(N)=O)C(C)C)c1, the lipid storage change, negative = inhibition is reported as inconclusive: -46.4%. In the case of Cc1ccc(C)n1NC(=O)c1cccc(Cl)c1, the Potency is reported as active: 20.6 µM. For Cc1c(CC(=O)NCCCC(=O)O)c(=O)oc2cc3c(cc12)CCC(C)(C)O3, the lipid storage change, negative = inhibition was inconclusive: 36.4%. For COc1ccc(C(=O)NC2CCCc3c2cnn3-c2cc(F)cc(F)c2)c(OC)c1OC (centres undefined), the “outcome” value was “inactive [at 46.1 µM]”. In the case of COCCCn1c(=O)c2sccc2n2c(CCCC(=O)NCc3ccccc3OC)nnc12, the Potency is reported as inconclusive: 6.51 µM [falling, single point]. For CCOc1ccc(-n2c(C)c(C(C)=O)c3cc(O)ccc32)cc1, the lipid storage change, negative = inhibition was inconclusive: -21.1%. In the case of Cc1sc(-c2ccccn2)nc1OC(=O)c1ccc(Cl)c(Cl)c1, the lipid storage change, negative = inhibition is reported as inconclusive: 9.96%. For O=C(NCCCN1CCCC1=O)Nc1ccc(Cl)cc1Cl, the lipid storage change, negative = inhibition was inconclusive: 4.73%. In the case of CN1CCN(CC(=O)Nc2nc(-c3c[nH]c4ccccc34)cs2)CC1, the “lipid storage change, negative = inhibition” value is reported as inactive: 17.6%. For Cc1[nH]nc2c1C(Cc1ccccc1)C(C#N)=C(N)O2 (centres undefined), the lipid storage change, negative = inhibition was inconclusive: 20.2%. In the case of CC(C)(C)OC(=O)N1CCC(C(=O)N[C@@H](Cc2ccccc2)C(=O)O)(c2ccccc2)CC1, the lipid storage change, negative = inhibition is reported as inconclusive: -12.2%. With O=c1c2cccnc2[nH]c(=S)n1CCCN1CCN(c2ccc(F)cc2)CC1 the lipid storage change, negative = inhibition was inconclusive: -14.1%. With COc1ccc(C(C)=O)cc1COC(=O)Cc1n[nH]c(=O)c2ccccc12 the Potency was inconclusive: 1.46 µM [activator, full curve]. For N#Cc1nc(Cc2ccccc2)oc1N1CCN(c2ccccc2)CC1, the lipid storage change, negative = inhibition was inconclusive: 37.9%. With COC(=O)NNC(=O)C12CC3CC(CC(C3)C1)C2 the lipid storage change, negative = inhibition was inconclusive: -55%. In the case of CC(Sc1nc2cc(Cl)ccc2s1)C(=O)Nc1cccc(S(=O)(=O)N2CCOCC2)c1 (centres undefined), the Potency is reported as inconclusive: 29.1 µM [falling, partial curve, poor fit]. For Cc1ccc(S(=O)(=O)/N=C/c2ccco2)cc1, the Potency was inconclusive: 16.4 µM [activator, single point]. With O=C(NCc1ccccc1)NC(=O)c1ccccc1F the lipid storage change, negative = inhibition was inconclusive: 74.5%. With Cc1ccc(NC(=S)Nn2cnnc2)c(C)c1 the lipid storage change, negative = inhibition was inconclusive: -100%. In the case of O=S(=O)(NCc1csc(-c2cccnc2)n1)c1ccc(F)cc1, the Potency is reported as inconclusive: 23.1 µM [falling, single point]. With Cn1c(-c2nonc2N)nc2ccccc21 the Potency was inconclusive: 6.51 µM [activator, partial curve]. With CCOC(=O)c1[nH]cnc1C(=O)Nc1ccncc1 the Potency was inconclusive: 0.517 µM [activator, partial curve]. In the case of O=[N+]([O-])c1ccc(/C=C/c2ccc3cccc(O)c3n2)cc1, the lipid storage change, negative = inhibition is reported as inconclusive: -27.3%. In the case of COc1ccc(N2CCN(c3ncnc4scc(-c5ccccc5)c34)CC2)cc1, the lipid storage change, negative = inhibition is reported as inconclusive: -193%. For Cc1cccc(NC(=O)CCCSc2nc3ccccc3[nH]2)c1, the Potency was inconclusive: 0.082 µM [falling, full curve, poor fit]. For C#CC(C)(CC)NC(=O)c1cc2nc(C3CC3)cc(C(F)(F)F)n2n1 (centres undefined), the lipid storage change, negative = inhibition was inconclusive: 5.75%. In the case of Fc1ccc2nc(N3CCCC3)sc2c1, the lipid storage change, negative = inhibition is reported as inconclusive: 19.8%. For CC(=O)Oc1ccc(C(=O)Nc2ccccc2C(=O)NCC(C)C)cc1, the lipid storage change, negative = inhibition was inconclusive: 20.2%. For O=C(CSc1nncs1)Nc1ccc(Cl)cn1, the “lipid storage change, negative = inhibition” value was inactive: -2.98%. For CCOC(=O)C1CCN(C(=O)Nc2ccc3nc(C)c(C)nc3c2)CC1, the lipid storage change, negative = inhibition was inconclusive: 30.6%. In the case of CNS(=O)(=O)c1cccc(C(=O)OCc2csc(-c3ccccc3)n2)c1, the Potency is reported as inconclusive: 20.6 µM [activator, partial curve]. For CC(C)C(=O)NCCc1nc2ccccc2n1CCc1ccccc1, the lipid storage change, negative = inhibition was inconclusive: -20.4%. In the case of CN(C)S(=O)(=O)N1CCCN(S(=O)(=O)N(C)C)CC1, the Potency is reported as inconclusive: 4.61 µM [falling, full curve]. With COc1ccc(C2C=C(c3ccccc3)Nc3nc(NC(C)=O)nn32)cc1 (centres undefined) the Potency was inconclusive: 6.51 µM [activator, partial curve]. With CC(=O)Nc1nc2c(c3c1c(=O)oc1ccccc13)CCCC2 the lipid storage change, negative = inhibition was inconclusive: 0.883%. For COc1cc(OC)cc(C(=O)N[C@H](C(=O)NCCc2ccc(S(N)(=O)=O)cc2)C(C)C)c1, the Potency was inconclusive: 6.51 µM [falling, single point]. In the case of COc1ccccc1NS(=O)(=O)c1ccc(-c2cnc(C3CC3)o2)cc1, the Potency is reported as inconclusive: 29.1 µM [activator, single point]. For O=C1Nc2ccccc2/C1=C\C(=O)c1ccccc1, the Potency was inconclusive: 20.6 µM [cytotoxic, single point]. In the case of CCOc1ccccc1OCC(=O)Nc1nnc(C)s1, the Potency is reported as inconclusive: 20.6 µM [activator, single point]. With Cn1c(N2CCN(C(=O)NCc3ccccc3)CC2)nc2ccccc21 the lipid storage change, negative = inhibition was inconclusive: 121%. In the case of C=CCc1cc(Cl)ccc1OCCNCCOC, the lipid storage change, negative = inhibition is reported as inconclusive: 0.265%. For COc1cccc(NC(=O)Nc2ccc(Cc3ccncc3)cc2)c1, the lipid storage change, negative = inhibition was inconclusive: 19%. For C/C(=N\NS(=O)(=O)c1ccc(Cl)cc1)c1ccc(NC(=O)c2ccco2)cc1, the lipid storage change, negative = inhibition was inconclusive: 30.6%. For CC(C)C(OC(=O)CN1C(=O)c2ccccc2C1=O)C(=O)NC1CCCCC1 (centres undefined), the lipid storage change, negative = inhibition was inconclusive: -1.88%.
